From patent publication US9564604B2, “Fused polycyclic aromatic compounds, organic semiconductor material and thin film including the same, and method for producing an organic semiconductor device” (Nippon Kayaku Kabushiki Kaisha, priority 2012, dated 2017)

Assay: Evaluation of FET characteristics (top-contact FET device, in atmosphere)
Conditions: channel length 50 μm, width 1.5 mm, 101 vacuum deposited, 110 and 112 spin coated

SMILES	On/off ratio	Threshold voltage [V]
CCCCCCCCc1cc2c(=C(C#N)C#N)cc3c(cc(=C(C#N)C#N)c4cc(CCCCCCCC)sc43)c2s1 [Compound 110]	10^3	0.7
CCCCCCCCCCCCc1cc2c(=C(C#N)C#N)cc3c(cc(=C(C#N)C#N)c4cc(CCCCCCCCCCCC)sc43)c2s1 [Compound 112]	10^4	1.2
